Reference: patent US10137182B2, “Cancer vaccines and vaccination methods” (ImmunoCellular Therapeutics, Ltd., priority 2013, dated 2018)
“Also recorded” adds a separate entry of the source. Not every detail of the peptide structures is certain; ends, links or a residue may be inferred. Where no end group is shown, it is not given here.

What was measured:
[1] = target: HLA-A*0201 molecules (Homo sapiens, UniProt P04439, D140Y/D185E/D98H/E176V/E277Q/G131W/G231S/I119V/I121R/I166T/I218V/L300P/L318F/N151K/N90K/P208A/P217A/Q86G/Q94H/R138H/R169H/T345S); assay: T2 cell binding assay of HLA-A2 peptides (upregulation of HLA-A2 on T2 cells, MFI by flow cytometry); conditions: peptide 75 μg/ml, overnight
[2] = test system: T2 cells pulsed with peptides; assay: IFN-γ ELISPOT assay of the antigen-specific T cell response; format: cell-based, human; conditions: 1×10^5 CTL with 7.5×10^4 T2 cells pulsed with 10 μg/ml peptide, 20 hours; compared with T2 control (no peptides)
[3] = Immunogenicity in vitro of A2 peptide epitopes (Table 1); conditions: A2 peptide epitope(s) of Exemplary Vaccine 1; no method given

Molecule: TLADFDPRV [EphA2 p883]
- binding affinity to HLA-A*0201 molecules / T2 cells (in words) [1]: high affinities
- binding affinity to HLA-A*0201 molecules / T2 cells (in words) ([1]; listed as EphA2p883): high affinity binding
- IFN-γ response of peptide-specific CTLs to peptide-pulsed T2 cells [2]: can efficiently recognize T2 pulsed with these antigens and boost the T cell immune response; also recorded: can efficiently recognize these antigens containing epitopes and induce T2 cell immune response
- Immunogenicity in vitro [3]: Yes

Molecule: CSCC[C@H](NC(=O)[C@@H](N)C(C)C)C(=O)N[C@@H](C)C(=O)NCC(=O)N[C@H](C(=O)NCC(=O)N[C@@H](CO)C(=O)N1CCC[C@H]1C(=O)N[C@@H](Cc1ccc(O)cc1)C(=O)N[C@H](C(=O)O)C(C)C)C(C)C [HER2 p773]
- binding affinity to HLA-A*0201 molecules / T2 cells (in words) [1]: high affinity binding
- IFN-γ response of peptide-specific CTLs to peptide-pulsed T2 cells [2]: can efficiently recognize T2 pulsed with these antigens and boost the T cell immune response; also recorded: can efficiently recognize these antigens containing epitopes and induce T2 cell immune response
- Immunogenicity in vitro [3]: Yes
